Measured values published in the supplement of paper PMC6411743.
± gives the standard deviation of the averaged measurements. This is one part of the list.

Protein sequences, listed by entry. Tags and fused reporters are not part of them. Lines headed by an entry give the natural chain unless they say otherwise; changes in a name come on top.
UniProt Q9Y6E0: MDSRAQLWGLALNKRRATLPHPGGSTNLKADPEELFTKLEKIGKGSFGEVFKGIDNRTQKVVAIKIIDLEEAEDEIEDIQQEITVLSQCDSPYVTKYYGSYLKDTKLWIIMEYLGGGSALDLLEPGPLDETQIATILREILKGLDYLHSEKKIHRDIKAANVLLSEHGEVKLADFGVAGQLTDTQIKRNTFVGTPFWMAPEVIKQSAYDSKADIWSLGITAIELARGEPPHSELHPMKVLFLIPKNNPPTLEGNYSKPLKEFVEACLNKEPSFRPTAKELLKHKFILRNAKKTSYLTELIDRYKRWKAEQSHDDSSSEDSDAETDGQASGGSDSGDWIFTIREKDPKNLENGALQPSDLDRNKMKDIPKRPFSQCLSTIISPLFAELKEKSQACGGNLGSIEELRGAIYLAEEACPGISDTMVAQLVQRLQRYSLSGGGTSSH
UniProt Q9UMS0: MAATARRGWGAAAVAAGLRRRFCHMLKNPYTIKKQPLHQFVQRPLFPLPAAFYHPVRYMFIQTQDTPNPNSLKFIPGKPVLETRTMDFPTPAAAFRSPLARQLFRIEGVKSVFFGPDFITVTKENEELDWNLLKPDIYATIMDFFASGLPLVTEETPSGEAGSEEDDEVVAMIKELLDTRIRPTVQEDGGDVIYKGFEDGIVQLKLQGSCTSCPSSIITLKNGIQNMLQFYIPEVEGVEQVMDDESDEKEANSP
UniProt O75832: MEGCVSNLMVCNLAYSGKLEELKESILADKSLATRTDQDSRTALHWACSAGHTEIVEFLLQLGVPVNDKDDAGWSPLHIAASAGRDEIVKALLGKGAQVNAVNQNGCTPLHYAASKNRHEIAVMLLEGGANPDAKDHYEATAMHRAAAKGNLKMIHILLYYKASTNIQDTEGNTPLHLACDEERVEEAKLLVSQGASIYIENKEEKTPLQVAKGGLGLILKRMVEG
UniProt Q86XS8: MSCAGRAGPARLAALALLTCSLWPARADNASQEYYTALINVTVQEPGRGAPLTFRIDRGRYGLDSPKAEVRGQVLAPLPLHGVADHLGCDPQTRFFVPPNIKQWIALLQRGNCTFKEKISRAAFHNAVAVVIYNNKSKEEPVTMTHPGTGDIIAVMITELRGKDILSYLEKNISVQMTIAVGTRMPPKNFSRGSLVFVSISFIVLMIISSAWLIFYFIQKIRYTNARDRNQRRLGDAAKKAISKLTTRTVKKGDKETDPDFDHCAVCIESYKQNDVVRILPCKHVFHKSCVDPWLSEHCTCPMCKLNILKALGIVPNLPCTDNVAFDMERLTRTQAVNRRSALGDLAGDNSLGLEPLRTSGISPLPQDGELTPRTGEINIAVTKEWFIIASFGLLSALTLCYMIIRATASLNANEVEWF
UniProt P13010: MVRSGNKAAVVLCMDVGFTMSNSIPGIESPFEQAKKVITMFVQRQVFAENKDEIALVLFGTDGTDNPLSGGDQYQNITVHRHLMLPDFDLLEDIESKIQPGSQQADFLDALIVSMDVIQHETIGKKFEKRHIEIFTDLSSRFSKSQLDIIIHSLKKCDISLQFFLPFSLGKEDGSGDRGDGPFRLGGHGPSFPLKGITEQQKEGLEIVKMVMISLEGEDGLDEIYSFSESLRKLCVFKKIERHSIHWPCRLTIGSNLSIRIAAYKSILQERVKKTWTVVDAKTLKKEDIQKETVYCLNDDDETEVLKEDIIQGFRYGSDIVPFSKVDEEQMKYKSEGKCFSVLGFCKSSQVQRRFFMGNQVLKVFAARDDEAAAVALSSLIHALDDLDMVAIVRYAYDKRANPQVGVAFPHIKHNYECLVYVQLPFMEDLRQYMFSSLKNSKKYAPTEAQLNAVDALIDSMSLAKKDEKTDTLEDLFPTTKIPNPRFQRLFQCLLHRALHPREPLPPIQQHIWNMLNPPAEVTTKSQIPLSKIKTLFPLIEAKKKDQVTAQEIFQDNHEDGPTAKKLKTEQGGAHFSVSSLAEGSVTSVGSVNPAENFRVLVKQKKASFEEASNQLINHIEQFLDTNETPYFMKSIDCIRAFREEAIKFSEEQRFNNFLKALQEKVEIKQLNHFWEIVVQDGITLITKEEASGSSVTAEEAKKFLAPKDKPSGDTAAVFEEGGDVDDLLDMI

Compound: Nc1nc2c(ncn2[C@@H]2O[C@H](COP(=O)(O)OP(=O)(O)OP(=O)(O)O)[C@@H](O)[C@H]2O)c(=O)[nH]1 [guanosine triphosphate]
Assay: NP40-soluble protein abundance relative to vehicle (solubility fold change) (ratio); higher = more soluble protein in presence of GTP
Protocol: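 Solubility proteome profiling in Jurkat crude lysate. Lysate was treated with Mg-GTP (0.1-10 mM) for 10 min at room temperature and 3 min at 37 °C, then solubilised with 0.8% NP40 and benzonase, followed by ultracentrifugation. Proteins were quantified by TMT10 LC-MS/MS; the value is the NP40-soluble abundance relative to the NP40-processed vehicle, from 3 independent experiments.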

Target | NP40-soluble protein abundance (concentration: 0.1mM) | NP40-soluble protein abundance (concentration: 0.5mM) | NP40-soluble protein abundance (concentration: 1mM) | NP40-soluble protein abundance (concentration: 2mM) | NP40-soluble protein abundance (concentration: 4mM) | NP40-soluble protein abundance (concentration: 6mM) | NP40-soluble protein abundance (concentration: 8mM) | NP40-soluble protein abundance (concentration: 10mM)
B4DR80 and related entries (UniProt Q9Y6E0) | 1 ± 0.035 | 0.983 ± 0.059 | 1.03 ± 0.074 | 0.968 ± 0.094 | 0.944 ± 0.051 | 0.979 ± 0.076 | 0.979 ± 0.068 | 0.948 ± 0.065
C9J8Q1 and related entries (UniProt Q9UMS0) | 0.897 ± 0.086 | 0.867 ± 0.13 | 0.97 ± 0.06 | 0.945 ± 0.15 | 0.912 ± 0.11 | 0.96 ± 0.2 | 0.919 ± 0.17 | 0.954 ± 0.12
B1AJY7 and related entries (UniProt O75832) | 0.856 ± 0.034 | 0.907 ± 0.065 | 0.972 ± 0.12 | 0.95 ± 0.12 | 0.949 ± 0.19 | 0.984 ± 0.14 | 0.903 ± 0.062 | 0.959 ± 0.17
E5RI87 and related entries (UniProt Q86XS8) | 1.08 ± 0.28 | 1.06 ± 0.099 | 1.14 ± 0.34 | 1.05 ± 0.16 | 1.11 ± 0.37 | 1.04 ± 0.14 | 1.17 ± 0.38 | 0.991 ± 0.043
C9JZ81 and related entries (UniProt P13010) | 1.02 ± 0.029 | 1.05 ± 0.064 | 0.9641 ± 0.0045 | 0.978 ± 0.056 | 0.992 ± 0.036 | 0.961 ± 0.047 | 0.929 ± 0.024 | 0.8996 ± 0.0052
